In PMC6379987 one finds binding data, which are given here for two substances.

By UniProt entry, the sequences of proteins in these tests, tags left out.
UniProt Q62120: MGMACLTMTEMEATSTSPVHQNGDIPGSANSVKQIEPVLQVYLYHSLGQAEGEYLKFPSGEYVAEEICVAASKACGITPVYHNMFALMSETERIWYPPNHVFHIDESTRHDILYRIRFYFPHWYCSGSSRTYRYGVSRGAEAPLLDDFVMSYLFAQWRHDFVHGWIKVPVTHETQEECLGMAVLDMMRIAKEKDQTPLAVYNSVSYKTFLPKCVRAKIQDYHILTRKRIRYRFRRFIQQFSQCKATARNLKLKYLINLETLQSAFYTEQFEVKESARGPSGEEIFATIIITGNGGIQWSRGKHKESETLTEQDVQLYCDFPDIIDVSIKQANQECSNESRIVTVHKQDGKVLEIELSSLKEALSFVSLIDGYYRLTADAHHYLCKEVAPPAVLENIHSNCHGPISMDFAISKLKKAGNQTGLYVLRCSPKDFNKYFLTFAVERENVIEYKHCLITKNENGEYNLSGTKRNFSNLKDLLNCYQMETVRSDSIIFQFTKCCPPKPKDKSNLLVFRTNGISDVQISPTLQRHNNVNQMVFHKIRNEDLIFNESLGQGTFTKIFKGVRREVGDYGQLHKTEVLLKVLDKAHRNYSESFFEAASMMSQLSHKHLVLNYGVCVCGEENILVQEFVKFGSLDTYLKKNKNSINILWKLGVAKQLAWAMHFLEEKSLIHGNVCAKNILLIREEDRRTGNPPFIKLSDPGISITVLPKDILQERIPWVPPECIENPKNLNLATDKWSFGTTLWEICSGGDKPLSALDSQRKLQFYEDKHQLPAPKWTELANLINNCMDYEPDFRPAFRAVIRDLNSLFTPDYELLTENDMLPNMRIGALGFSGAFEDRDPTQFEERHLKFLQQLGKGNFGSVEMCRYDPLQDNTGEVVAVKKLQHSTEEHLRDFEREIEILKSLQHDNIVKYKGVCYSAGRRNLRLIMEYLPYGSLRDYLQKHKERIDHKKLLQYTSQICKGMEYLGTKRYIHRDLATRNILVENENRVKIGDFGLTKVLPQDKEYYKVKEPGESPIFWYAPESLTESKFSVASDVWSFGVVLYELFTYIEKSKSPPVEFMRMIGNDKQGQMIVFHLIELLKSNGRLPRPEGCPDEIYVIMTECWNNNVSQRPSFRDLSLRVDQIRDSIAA

These are yes or no findings as the source states them, for the method shown. Binding seen in cells or lysates may run through a third protein. Some entries that bind do so weakly or less than the wild type.

The target in one assay is mJAK2 wildtype (UniProt Q62120). The experiment in a line: co-IP; HEK293T transfected with HA-PDGFRβ and mJAK2 wildtype or kinase dead, 24 h, then MG132, pepstatin and leupeptin for 4 h; lysed in IP buffer (50 mM Tris-HCl pH 7.4, 300 mM NaCl, 5 mM EDTA, 1% Nonidet P40); immunoprecipitated with JAK2-specific antibody overnight at 4 °C, Protein A/G Dynabeads; western blot. (Immunoblotting shows a protein as a band on a membrane.)

A further assay concerns the target HA-tagged PDGFRβ (UniProt P09619). The experiment in a line: co-IP; HEK293T transfected with HA-PDGFRβ and mJAK2 wildtype or kinase dead, 24 h, then MG132, pepstatin and leupeptin for 4 h; lysed in IP buffer (50 mM Tris-HCl pH 7.4, 300 mM NaCl, 5 mM EDTA, 1% Nonidet P40); immunoprecipitated with HA-specific antibody overnight at 4 °C, Protein A/G Dynabeads; western blot.

For “HA-tagged PDGFRβ (from UniProt P09619 33-1106) (receptor)”, the binding entry with mJAK2 wildtype is “binds”.

For the substance “mJAK2 wildtype (from UniProt Q62120 1-1132) (enzyme)”, the binding entry with HA-tagged PDGFRβ was “binds”.
